This experiment has as its system Candida albicans. The experiment is described as follows: Antifungal activity against Candida albicans ATCC 10231 assessed as growth inhibition at 100 ug/disc after 48 hrs by disc diffusion assay. In kind it is functional, organism-based.

This passage reports inhibition zone (IZ) results from ChEMBL document CHEMBL2417536, “New pyridazine-fluorine derivatives: synthesis, chemistry and biological activity. Part II” (2013).

Take NYSTATIN: the inhibition zone (IZ) came to 29 mm.
